Laboratory results as given in the supplement of paper PMC10849652.
The list shows a part of the results.

By UniProt entry, the sequences of proteins in these tests, tags left out. Where a name states a change or a piece, a line headed by the entry shows the natural chain unless it says otherwise.
UniProt P51178: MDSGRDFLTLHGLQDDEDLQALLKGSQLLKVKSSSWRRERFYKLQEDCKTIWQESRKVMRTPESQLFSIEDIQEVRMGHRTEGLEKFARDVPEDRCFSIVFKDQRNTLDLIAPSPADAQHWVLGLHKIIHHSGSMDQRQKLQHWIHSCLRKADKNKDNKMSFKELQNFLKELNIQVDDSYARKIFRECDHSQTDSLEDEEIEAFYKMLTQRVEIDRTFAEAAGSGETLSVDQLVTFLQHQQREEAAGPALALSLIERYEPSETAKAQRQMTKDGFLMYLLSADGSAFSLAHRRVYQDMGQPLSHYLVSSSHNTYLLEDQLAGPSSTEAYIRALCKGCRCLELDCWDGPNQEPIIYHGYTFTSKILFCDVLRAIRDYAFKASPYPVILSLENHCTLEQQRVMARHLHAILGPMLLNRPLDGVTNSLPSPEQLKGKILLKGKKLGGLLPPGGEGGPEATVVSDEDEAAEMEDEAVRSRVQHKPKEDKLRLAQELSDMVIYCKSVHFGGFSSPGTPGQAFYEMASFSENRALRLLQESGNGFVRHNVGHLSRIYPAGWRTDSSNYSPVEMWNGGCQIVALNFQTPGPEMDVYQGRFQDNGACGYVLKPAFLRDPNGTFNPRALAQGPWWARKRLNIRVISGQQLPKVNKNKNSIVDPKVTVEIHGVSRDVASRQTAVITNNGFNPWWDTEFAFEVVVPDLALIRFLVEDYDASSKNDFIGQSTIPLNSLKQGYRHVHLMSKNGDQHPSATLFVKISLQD
UniProt Q86T03: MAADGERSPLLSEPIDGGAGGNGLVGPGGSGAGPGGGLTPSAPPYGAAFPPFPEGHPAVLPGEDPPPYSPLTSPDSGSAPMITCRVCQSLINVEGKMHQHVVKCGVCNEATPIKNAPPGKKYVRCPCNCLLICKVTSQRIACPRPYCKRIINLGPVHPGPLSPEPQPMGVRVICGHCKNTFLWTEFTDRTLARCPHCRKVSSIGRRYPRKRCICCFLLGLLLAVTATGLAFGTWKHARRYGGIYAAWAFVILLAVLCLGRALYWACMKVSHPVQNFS
UniProt Q9Y446: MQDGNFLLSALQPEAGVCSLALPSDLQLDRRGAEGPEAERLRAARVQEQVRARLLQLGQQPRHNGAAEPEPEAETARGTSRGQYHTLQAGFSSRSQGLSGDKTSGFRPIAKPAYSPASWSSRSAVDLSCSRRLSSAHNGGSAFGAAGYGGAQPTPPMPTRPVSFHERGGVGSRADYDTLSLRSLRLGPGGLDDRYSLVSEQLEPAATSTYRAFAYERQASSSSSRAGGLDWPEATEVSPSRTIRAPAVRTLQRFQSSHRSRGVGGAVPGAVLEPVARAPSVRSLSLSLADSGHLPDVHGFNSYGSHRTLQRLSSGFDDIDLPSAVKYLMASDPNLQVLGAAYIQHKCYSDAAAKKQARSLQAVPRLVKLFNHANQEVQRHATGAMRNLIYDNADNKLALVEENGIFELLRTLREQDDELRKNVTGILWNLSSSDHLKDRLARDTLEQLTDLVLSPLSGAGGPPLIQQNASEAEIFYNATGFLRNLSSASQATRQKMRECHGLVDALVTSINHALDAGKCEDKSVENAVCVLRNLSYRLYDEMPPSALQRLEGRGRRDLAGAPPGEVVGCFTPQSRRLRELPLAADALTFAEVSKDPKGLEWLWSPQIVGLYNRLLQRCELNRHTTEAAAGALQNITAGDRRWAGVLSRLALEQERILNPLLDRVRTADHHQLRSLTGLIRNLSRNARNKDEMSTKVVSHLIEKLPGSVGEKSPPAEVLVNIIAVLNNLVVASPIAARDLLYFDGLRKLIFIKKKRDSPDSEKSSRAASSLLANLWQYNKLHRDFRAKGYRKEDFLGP
UniProt O00625: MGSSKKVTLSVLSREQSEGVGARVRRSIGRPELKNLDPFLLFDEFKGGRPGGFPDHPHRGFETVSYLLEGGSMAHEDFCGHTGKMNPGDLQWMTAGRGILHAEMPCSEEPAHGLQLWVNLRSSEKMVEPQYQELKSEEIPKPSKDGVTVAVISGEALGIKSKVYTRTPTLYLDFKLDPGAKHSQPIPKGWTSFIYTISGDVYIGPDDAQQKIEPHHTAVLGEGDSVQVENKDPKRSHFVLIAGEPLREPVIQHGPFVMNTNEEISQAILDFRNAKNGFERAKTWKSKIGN
UniProt Q99755: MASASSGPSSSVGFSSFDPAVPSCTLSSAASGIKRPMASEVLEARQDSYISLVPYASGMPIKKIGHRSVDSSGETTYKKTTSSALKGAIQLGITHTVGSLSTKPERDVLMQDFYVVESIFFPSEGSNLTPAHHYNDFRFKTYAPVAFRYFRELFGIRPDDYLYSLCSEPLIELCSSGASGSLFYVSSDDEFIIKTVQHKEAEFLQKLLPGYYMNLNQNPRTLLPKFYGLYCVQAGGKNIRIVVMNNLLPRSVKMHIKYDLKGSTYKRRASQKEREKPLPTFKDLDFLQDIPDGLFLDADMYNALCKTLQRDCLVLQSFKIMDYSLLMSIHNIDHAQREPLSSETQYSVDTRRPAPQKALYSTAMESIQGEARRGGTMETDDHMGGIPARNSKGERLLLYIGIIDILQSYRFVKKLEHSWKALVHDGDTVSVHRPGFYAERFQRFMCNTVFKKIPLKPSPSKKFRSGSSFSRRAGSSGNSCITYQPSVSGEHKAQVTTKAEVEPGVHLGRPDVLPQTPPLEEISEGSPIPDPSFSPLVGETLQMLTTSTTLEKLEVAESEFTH
UniProt Q8N4L2: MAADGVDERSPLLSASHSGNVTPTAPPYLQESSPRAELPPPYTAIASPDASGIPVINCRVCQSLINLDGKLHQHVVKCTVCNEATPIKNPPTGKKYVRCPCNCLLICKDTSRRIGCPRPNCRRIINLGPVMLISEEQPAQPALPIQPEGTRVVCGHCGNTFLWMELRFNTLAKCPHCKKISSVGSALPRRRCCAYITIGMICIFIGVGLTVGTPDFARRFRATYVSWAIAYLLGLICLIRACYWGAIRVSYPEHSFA
UniProt O00459, whole entry, looked up: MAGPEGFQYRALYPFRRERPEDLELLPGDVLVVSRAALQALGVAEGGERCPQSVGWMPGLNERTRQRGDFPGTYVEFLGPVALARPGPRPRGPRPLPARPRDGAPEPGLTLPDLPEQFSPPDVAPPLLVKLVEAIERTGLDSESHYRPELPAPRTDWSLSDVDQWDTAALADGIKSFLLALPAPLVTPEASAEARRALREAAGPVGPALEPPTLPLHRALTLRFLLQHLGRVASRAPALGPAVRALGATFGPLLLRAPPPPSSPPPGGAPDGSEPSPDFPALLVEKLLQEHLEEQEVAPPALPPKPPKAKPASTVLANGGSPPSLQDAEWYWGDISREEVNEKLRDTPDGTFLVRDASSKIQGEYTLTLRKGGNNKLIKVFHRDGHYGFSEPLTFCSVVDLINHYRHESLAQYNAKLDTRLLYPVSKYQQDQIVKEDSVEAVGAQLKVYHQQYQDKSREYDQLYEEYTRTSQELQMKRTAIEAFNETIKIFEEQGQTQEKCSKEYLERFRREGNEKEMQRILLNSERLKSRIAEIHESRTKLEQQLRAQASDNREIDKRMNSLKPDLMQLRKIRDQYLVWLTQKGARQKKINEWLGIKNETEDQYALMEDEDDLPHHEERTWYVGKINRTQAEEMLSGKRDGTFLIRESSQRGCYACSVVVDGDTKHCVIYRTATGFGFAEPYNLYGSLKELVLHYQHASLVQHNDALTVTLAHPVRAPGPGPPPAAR
UniProt Q93100: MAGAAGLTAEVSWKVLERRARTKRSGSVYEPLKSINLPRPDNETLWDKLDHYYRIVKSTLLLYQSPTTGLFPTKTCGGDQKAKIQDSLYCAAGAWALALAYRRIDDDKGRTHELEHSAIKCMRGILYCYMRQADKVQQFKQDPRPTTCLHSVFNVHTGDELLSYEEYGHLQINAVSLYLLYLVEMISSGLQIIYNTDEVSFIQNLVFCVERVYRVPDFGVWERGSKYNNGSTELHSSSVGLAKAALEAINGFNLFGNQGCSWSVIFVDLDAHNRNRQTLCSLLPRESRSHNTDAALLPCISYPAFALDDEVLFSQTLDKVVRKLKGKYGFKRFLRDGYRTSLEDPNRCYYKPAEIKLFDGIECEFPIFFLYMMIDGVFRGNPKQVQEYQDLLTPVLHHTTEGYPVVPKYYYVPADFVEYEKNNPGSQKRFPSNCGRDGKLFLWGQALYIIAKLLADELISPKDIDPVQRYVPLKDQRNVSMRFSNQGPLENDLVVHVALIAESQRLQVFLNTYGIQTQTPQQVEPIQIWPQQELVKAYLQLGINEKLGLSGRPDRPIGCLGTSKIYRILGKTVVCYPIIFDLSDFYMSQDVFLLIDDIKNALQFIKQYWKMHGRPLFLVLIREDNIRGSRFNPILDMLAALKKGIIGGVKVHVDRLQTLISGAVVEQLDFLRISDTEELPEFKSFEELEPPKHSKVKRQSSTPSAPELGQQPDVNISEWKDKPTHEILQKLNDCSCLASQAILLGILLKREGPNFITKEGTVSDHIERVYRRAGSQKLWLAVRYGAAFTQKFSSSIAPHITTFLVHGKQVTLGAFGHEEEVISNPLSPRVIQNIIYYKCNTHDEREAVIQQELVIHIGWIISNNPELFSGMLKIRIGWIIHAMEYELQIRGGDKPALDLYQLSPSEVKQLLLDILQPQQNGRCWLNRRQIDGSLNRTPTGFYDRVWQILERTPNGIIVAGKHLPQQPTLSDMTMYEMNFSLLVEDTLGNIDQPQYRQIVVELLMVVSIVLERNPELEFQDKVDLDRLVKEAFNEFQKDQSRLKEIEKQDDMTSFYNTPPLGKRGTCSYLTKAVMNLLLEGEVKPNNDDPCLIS
UniProt P53609, whole entry, looked up: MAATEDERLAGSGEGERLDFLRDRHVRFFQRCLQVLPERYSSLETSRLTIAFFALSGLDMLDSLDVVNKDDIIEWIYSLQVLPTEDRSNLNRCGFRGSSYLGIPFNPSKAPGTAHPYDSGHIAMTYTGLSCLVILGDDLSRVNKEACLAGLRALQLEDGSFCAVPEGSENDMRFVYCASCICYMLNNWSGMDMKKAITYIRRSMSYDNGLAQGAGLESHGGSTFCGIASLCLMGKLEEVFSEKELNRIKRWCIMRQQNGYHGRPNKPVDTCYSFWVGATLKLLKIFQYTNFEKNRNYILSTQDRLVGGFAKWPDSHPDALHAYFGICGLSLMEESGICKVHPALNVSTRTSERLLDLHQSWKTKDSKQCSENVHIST
UniProt Q32NB8: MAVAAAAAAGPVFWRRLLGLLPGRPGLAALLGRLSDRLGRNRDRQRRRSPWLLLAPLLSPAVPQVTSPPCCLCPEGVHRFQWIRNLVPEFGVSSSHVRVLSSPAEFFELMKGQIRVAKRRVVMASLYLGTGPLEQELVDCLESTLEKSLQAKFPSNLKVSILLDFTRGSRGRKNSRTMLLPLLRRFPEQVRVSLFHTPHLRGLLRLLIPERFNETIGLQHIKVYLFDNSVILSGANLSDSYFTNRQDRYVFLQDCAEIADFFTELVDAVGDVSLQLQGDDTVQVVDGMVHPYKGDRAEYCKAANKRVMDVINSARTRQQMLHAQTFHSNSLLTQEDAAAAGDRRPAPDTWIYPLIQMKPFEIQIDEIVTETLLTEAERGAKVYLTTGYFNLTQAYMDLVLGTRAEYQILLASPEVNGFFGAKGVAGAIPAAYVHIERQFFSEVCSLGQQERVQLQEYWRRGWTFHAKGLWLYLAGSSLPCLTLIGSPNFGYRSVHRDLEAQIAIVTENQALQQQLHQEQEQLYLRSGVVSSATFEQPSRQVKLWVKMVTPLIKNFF
UniProt Q96BD5: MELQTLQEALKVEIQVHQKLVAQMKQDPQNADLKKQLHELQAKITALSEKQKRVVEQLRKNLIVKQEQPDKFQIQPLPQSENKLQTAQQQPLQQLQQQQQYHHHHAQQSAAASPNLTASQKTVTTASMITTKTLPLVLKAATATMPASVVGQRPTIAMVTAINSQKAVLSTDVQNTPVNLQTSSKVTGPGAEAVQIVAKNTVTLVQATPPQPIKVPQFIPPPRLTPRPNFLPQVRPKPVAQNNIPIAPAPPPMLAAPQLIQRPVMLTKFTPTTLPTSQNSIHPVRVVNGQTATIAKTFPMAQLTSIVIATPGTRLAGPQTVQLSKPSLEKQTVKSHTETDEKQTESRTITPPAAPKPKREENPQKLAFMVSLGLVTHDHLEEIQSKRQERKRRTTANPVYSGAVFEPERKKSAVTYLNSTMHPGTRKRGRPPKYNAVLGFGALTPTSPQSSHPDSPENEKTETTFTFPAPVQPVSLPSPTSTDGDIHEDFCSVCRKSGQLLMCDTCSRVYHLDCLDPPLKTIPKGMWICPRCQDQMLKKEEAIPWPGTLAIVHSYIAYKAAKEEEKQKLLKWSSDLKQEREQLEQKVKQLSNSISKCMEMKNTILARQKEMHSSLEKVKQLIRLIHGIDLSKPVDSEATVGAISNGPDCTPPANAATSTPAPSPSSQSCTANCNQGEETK

Key:
Test in all cases: log2 fold change, soluble protein after heating vs DMSO (PISA); higher = thermal stabilisation; K562 lysate, 10 uM; active = over 0.2 and 3.5 SD of the protein, either way, in both replicates (recomputed)
nilotinib = compound: Cc1cn(-c2cc(NC(=O)c3ccc(C)c(Nc4nccc(-c5cccnc5)n4)c3)cc(C(F)(F)F)c2)cn1 [nilotinib]
Procedure, shortened: (§1)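 A 30 min treatment with 10 μM compound was applied to crude K562 extract at 1 mg/mL protein in PBS pH 7.4 with 1 mM MgCl2. Heating for 3 min spanned 48°C-58°C, after which aliquots were pooled, adjusted to 0.5% NP-40 at 4°C and spun at 21,000xg for 90 min. TMTpro 16plex LC-MS/MS of the supernatant, with channel sums equalised, gave values recorded as log-two fold change in thermal stability against solvent controls, from duplicates.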

[1] = compound: Cc1nc(Nc2n[nH]c3c2CN(C(=O)N[C@H](CN(C)C)c2ccccc2)C3(C)C)c2sccc2n1
Procedure, shortened: as §1

dasatinib = compound: Cc1nc(Nc2ncc(C(=O)Nc3c(C)cccc3Cl)s2)cc(N2CCN(CCO)CC2)n1 [dasatinib]
Procedure, shortened: as §1

[2] = compound: Cc1ncc(-c2ccnc(Nc3ccc(S(C)(=O)=O)cc3)n2)n1C(C)C
Procedure, shortened: as §1

[3] = compound: Cn1cc(-c2ccc3c(c2)CCN3C(=O)Cc2cccc(C(F)(F)F)c2)c2c(N)ncnc21
Procedure, shortened: as §1

quisinostat = compound: Cn1cc(CNCC2CCN(c3ncc(C(=O)NO)cn3)CC2)c2ccccc21 [quisinostat]
Procedure, shortened: as §1

tipifarnib = compound: Cn1cncc1[C@@](N)(c1ccc(Cl)cc1)c1ccc2c(c1)c(-c1cccc(Cl)c1)cc(=O)n2C [tipifarnib]
Procedure, shortened: as §1

[4] = compound: NC(=O)Nc1cc(-c2cccc(F)c2)sc1C(=O)N[C@H]1CCCNC1
Procedure, shortened: as §1

[5] = compound: NC(=O)c1cnc(N[C@@H]2CCCC[C@@H]2N)nc1Nc1cccc(-n2nccn2)c1
Procedure, shortened: as §1

[6] = compound: NC1(c2ccc(-c3nc4ccn5c(=O)[nH]nc5c4cc3-c3ccccc3)cc2)CCC1
Procedure, shortened: as §1

[7] = compound: NCC(=O)Nc1ccc(-n2nc(C(F)(F)F)cc2-c2ccc3c(ccc4ccccc43)c2)cc1
Procedure, shortened: as §1

vorinostat = compound: O=C(CCCCCCC(=O)Nc1ccccc1)NO [vorinostat]
Procedure, shortened: as §1

silmitasertib = compound: O=C(O)c1ccc2c(c1)nc(Nc1cccc(Cl)c1)c1ccncc12 [silmitasertib]
Procedure, shortened: as §1

[8] = compound: O=C1NC(=O)C(c2cnc3ccccn23)=C1c1cn2c3c(cc(F)cc13)CN(C(=O)N1CCCCC1)CC2
Procedure, shortened: as §1

entospletinib = compound: c1cn2cc(-c3ccc4cn[nH]c4c3)nc(Nc3ccc(N4CCOCC4)cc3)c2n1 [entospletinib]
Procedure, shortened: as §1

| Target | log2 fold change (nilotinib) | log2 fold change [1] | log2 fold change (dasatinib) | log2 fold change [2] | log2 fold change [3] | log2 fold change (quisinostat) | log2 fold change (tipifarnib) | log2 fold change [4] | log2 fold change [5] | log2 fold change [6] | log2 fold change [7] | log2 fold change (vorinostat) | log2 fold change (silmitasertib) | log2 fold change [8] | log2 fold change (entospletinib) |
| --- | --- | --- | --- | --- | --- | --- | --- | --- | --- | --- | --- | --- | --- | --- | --- |
| PGM2 (UniProt Q96G03) | inactive: 0.014 | inactive: -0.005 | inactive: 0.016 | inactive: 0.028 | inactive: 0.005 | inactive: 0.005 | inactive: 0.008 | inactive: -0.017 | inactive: -0.002 | inactive: 0.019 | inactive: -0.004 | inactive: 0.141 | inactive: -0.018 | inactive: 0.006 | inactive: 0.027 |
| PLCD1 isoform 2 (UniProt P51178) | inactive: 0.004 | inactive: -0.021 | inactive: -0.014 | inactive: 0.014 | inactive: 0.021 | inactive: -0.039 | inactive: 0.005 | inactive: -0.023 | inactive: 0.014 | inactive: -0.023 | inactive: 0.018 | inactive: -0.119 | inactive: 0.025 | inactive: -0.01 | inactive: -0.043 |
| PHB (UniProt P35232) | inactive: 0.001 | inactive: 0.066 | inactive: 0.049 | inactive: -0.006 | inactive: -0.006 | inactive: 0.03 | inactive: -0.007 | inactive: -0.054 | inactive: -0.008 | inactive: 0.019 | inactive: -0.13 | inactive: 0.126 | inactive: 0.076 | inactive: -0.04 | inactive: 0.007 |
| PIP4P1 isoform 2 (UniProt Q86T03) | inactive: 0.005 | inactive: 0.022 | inactive: -0.019 | inactive: 0.056 | inactive: -0.027 | inactive: 0.052 | inactive: -0.01 | inactive: -0.04 | inactive: 0.007 | inactive: -0.013 | inactive: 0.023 | inactive: -0.17 | inactive: 0.02 | inactive: 0.017 | inactive: -0.034 |
| PKP3 isoform 2 (UniProt Q9Y446) | inactive: -0.034 | inactive: -0.021 | inactive: 0 | inactive: -0.039 | inactive: -0.001 | inactive: -0.012 | inactive: 0.007 | inactive: -0.051 | inactive: -0.021 | inactive: 0.02 | inactive: -0.021 | active: -0.286 | inactive: -0.043 | inactive: -0.063 | inactive: 0.002 |
| PHKG2 (UniProt P15735) | inactive: -0.022 | active: 0.598 | inactive: -0.03 | inactive: 0.046 | inactive: 0.037 | inactive: -0.069 | inactive: 0.038 | active: 0.979 | inactive: -0.042 | inactive: -0.073 | inactive: -0.029 | inactive: 0.013 | inactive: 0.008 | inactive: -0.022 | inactive: 0.026 |
| PGLS (UniProt O95336) | inactive: 0.008 | inactive: -0.021 | inactive: 0.001 | inactive: 0.168 | inactive: 0.022 | inactive: 0.017 | inactive: -0.013 | inactive: -0.017 | inactive: -0.073 | inactive: 0.014 | inactive: -0.08 | inactive: 0.079 | inactive: -0.034 | inactive: 0.072 | inactive: 0.003 |
| PHC3 isoform 7 (UniProt Q8NDX5) | inactive: -0.188 | inactive: -0.016 | inactive: -0.001 | inactive: -0.063 | inactive: 0.109 | inactive: -0.073 | inactive: -0.008 | inactive: 0.112 | inactive: -0.004 | inactive: 0.05 | inactive: -0.007 | inactive: -0.216 | inactive: 0.061 | inactive: -0.031 | inactive: 0.213 |
| PIK3R1 (UniProt P27986) | inactive: -0.041 | inactive: -0.072 | inactive: -0.024 | inactive: 0.058 | inactive: 0.004 | inactive: -0.027 | inactive: 0.039 | inactive: 0.042 | inactive: 0.021 | inactive: 0.249 | inactive: -0.035 | inactive: -0.206 | inactive: 0.213 | inactive: 0.022 | inactive: 0.03 |
| PIR (UniProt O00625) | inactive: 0.011 | inactive: -0.011 | inactive: 0.027 | inactive: 0.012 | inactive: 0.023 | inactive: 0.011 | inactive: 0.005 | inactive: 0.02 | inactive: -0.009 | inactive: -0.046 | inactive: 0.015 | inactive: 0.035 | inactive: -0.049 | inactive: -0.013 | inactive: -0.035 |
| PIP5K1A (UniProt Q99755) | inactive: -0.091 | inactive: 0.011 | inactive: -0.137 | inactive: -0.082 | inactive: 0.033 | inactive: -0.165 | inactive: 0.032 | inactive: 0.034 | inactive: -0.041 | inactive: 0.01 | – | inactive: -0.014 | inactive: -0.033 | inactive: 0.047 | – |
| PIP4P2 (UniProt Q8N4L2) | active: 0.287 | inactive: -0.073 | inactive: -0.171 | inactive: -0.015 | inactive: -0.048 | inactive: 0.035 | inactive: -0.148 | inactive: -0.016 | inactive: 0.121 | inactive: -0.007 | inactive: 0.004 | inactive: 0.029 | inactive: 0.034 | inactive: 0.034 | inactive: -0.05 |
| PIK3R2 (UniProt O00459) | inactive: 0.007 | inactive: -0.006 | inactive: -0.023 | inactive: 0.003 | inactive: -0.008 | inactive: -0.04 | inactive: -0.001 | inactive: 0.031 | inactive: 0.017 | inactive: 0.263 | inactive: -0.007 | inactive: -0.245 | inactive: 0.201 | inactive: -0.029 | inactive: -0.092 |
| PKN2 (UniProt Q16513) | inactive: 0.027 | inactive: -0.086 | inactive: -0.097 | inactive: 0.011 | inactive: 0.006 | inactive: 0.065 | inactive: -0.01 | inactive: -0.184 | inactive: -0.007 | inactive: -0.02 | inactive: 0.051 | inactive: 0.005 | inactive: -0.023 | inactive: -0.021 | inactive: -0.037 |
| PIEZO1 (UniProt Q92508) | inactive: 0.006 | inactive: -0.024 | inactive: 0.015 | inactive: 0.001 | inactive: 0.039 | inactive: -0.019 | inactive: 0.008 | inactive: -0.004 | inactive: -0.046 | inactive: 0.035 | inactive: 0.023 | inactive: 0.09 | inactive: 0.016 | inactive: 0.001 | inactive: -0.015 |
| PHKB isoform 3 (UniProt Q93100) | inactive: -0.007 | inactive: 0.121 | inactive: -0.023 | inactive: 0.001 | inactive: 0.008 | inactive: -0.063 | inactive: -0.035 | active: 0.28 | inactive: 0.004 | inactive: -0.058 | inactive: -0.023 | active: -0.288 | inactive: 0.07 | inactive: 0.016 | inactive: 0.023 |
| PHRF1 (UniProt Q9P1Y6) | inactive: 0.071 | inactive: -0.018 | inactive: 0.048 | inactive: -0.07 | inactive: -0.028 | inactive: 0.06 | inactive: 0.015 | inactive: -0.071 | inactive: 0.082 | inactive: -0.047 | inactive: 0.082 | inactive: -0.068 | inactive: -0.194 | inactive: 0.072 | inactive: -0.025 |
| PGGT1B (UniProt P53609) | inactive: 0.01 | inactive: -0.005 | inactive: 0.005 | inactive: -0.03 | inactive: 0.048 | inactive: 0.066 | inactive: 0.208 | inactive: 0.018 | inactive: -0.037 | inactive: 0.047 | inactive: -0.038 | inactive: 0.08 | inactive: 0.109 | inactive: -0.029 | inactive: -0.054 |
| PKN1 isoform 2 (UniProt Q16512) | inactive: -0.014 | inactive: -0.098 | inactive: -0.14 | inactive: -0.002 | inactive: 0 | inactive: 0.102 | inactive: 0.009 | inactive: -0.128 | inactive: -0.054 | inactive: -0.004 | inactive: 0.002 | inactive: -0.131 | inactive: -0.012 | inactive: -0.138 | inactive: -0.009 |
| PGS1 (UniProt Q32NB8) | inactive: -0.026 | inactive: 0.073 | inactive: -0.082 | inactive: 0.045 | inactive: 0.05 | inactive: -0.073 | inactive: -0.022 | inactive: 0.055 | inactive: 0.057 | inactive: -0.058 | inactive: 0.079 | inactive: 0.078 | inactive: 0.006 | inactive: 0.066 | inactive: -0.101 |
| PHF21A isoform 3 (UniProt Q96BD5) | inactive: -0.018 | inactive: 0.232 | inactive: 0.182 | inactive: 0.03 | inactive: -0.111 | inactive: -0.173 | inactive: -0.144 | inactive: 0.14 | inactive: 0.011 | inactive: 0.013 | inactive: 0.002 | inactive: -0.202 | inactive: -0.037 | inactive: -0.071 | inactive: 0.023 |

An excerpt of these results, in CSV form.
Target,log2 fold change (nilotinib),log2 fold change [1],log2 fold change (dasatinib),log2 fold change [2],log2 fold change [3],log2 fold change (quisinostat),log2 fold change (tipifarnib),log2 fold change [4],log2 fold change [5],log2 fold change [6],log2 fold change [7],log2 fold change (vorinostat),log2 fold change (silmitasertib),log2 fold change [8],log2 fold change (entospletinib)
PKP3 isoform 2 (UniProt Q9Y446),inactive: -0.034,inactive: -0.021,inactive: 0,inactive: -0.039,inactive: -0.001,inactive: -0.012,inactive: 0.007,inactive: -0.051,inactive: -0.021,inactive: 0.02,inactive: -0.021,active: -0.286,inactive: -0.043,inactive: -0.063,inactive: 0.002
PHF21A isoform 3 (UniProt Q96BD5),inactive: -0.018,inactive: 0.232,inactive: 0.182,inactive: 0.03,inactive: -0.111,inactive: -0.173,inactive: -0.144,inactive: 0.14,inactive: 0.011,inactive: 0.013,inactive: 0.002,inactive: -0.202,inactive: -0.037,inactive: -0.071,inactive: 0.023
